These are yes or no findings as the source states them, for the method shown. Binding can be weak; no strength is given. Where a sequence is shown, tags or fusion partners need not be part of it.
The molecules below were run against human OPN RAA Nhalf protein (human) (UniProt P10451) (assay: ligand solid phase ELISA: OPN RAA Nhalf immobilised, COS1 supernatant, anti-FLAG detection).

Sequences of proteins named here, by UniProt entry; tags and fusion partners are left off. A change or cut given only in a name is not applied to a line headed by its entry.
UniProt P10451: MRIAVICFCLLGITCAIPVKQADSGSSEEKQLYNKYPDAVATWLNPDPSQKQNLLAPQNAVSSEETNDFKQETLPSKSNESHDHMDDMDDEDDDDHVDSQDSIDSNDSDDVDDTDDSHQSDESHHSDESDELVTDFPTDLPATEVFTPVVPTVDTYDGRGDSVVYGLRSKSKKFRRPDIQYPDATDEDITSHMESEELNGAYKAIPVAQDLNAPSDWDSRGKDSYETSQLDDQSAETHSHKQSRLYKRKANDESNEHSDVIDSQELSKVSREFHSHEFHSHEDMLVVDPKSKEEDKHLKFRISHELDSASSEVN

Molecule	binding
10-7-2 mutant (alternative splicing variant of human integrin α4) with C-terminal FLAG tag, secreted into COS1 culture supernatant (from UniProt P13612 34-641) (receptor)	binds
10-7-3 mutant (alternative splicing variant of human integrin α4) with C-terminal FLAG tag, secreted into COS1 culture supernatant (from UniProt P13612 34-640) (receptor)	binds
1-2-1 mutant (alternative splicing variant of human integrin α4) with C-terminal FLAG tag, secreted into COS1 culture supernatant (receptor, not shown: small tags and cut ends) YNVDTESALLYQGPHNTLFGYSVVLHSHGANRWLLVGAPTANWLANASVINPGAIYRCRIGKNPGQTCEQLQLGSPNGEPCGKTCLEERDNQWLGVTLSRQPGENGSIVTCGHRWKNIFYIKNENKLPTGGCYGVPPDLRTELSKRIAPCYQGSISKYRART	binds
1-1-2 mutant (alternative splicing variant of human integrin α4) with C-terminal FLAG tag, secreted into COS1 culture supernatant (receptor, not shown: small tags and cut ends) YNVDTESALLYQGPHNTLFGYSVVLHSHGANRWLLVGAPTANWLANASVINPGAIYRCRIGKNPGQTCEQLQLGSPNGEPCGKTCLEERDNQWLGVTLSRQPGENGSIVTCGHRWKNIFYIKNENKLPTGGCYGVPPDLRTELSKRIAPCYQDYVKKFGENFASCQAGISSFYTKDLIVMGAPGSSYWTGSLFVYNITTNKYKAFLDKQNQVKFGSYLGYSVGAGHFRSQHTTEVVGGAPQHEQIGKAYIFSIDEKELNILHEMKGKKLGSYFGASVCAVDLNADGFSDLLVGAPMQSTIREEGRVFVYINSGSGAVMNAMETNLVGSDKYAARFGESIVNLGDIDNDGFEGN	binds
7-3-2 mutant (alternative splicing variant of human integrin α4) with C-terminal FLAG tag, secreted into COS1 culture supernatant (receptor, not shown: small tags and cut ends) YNVDTESALLYQGPHNTLFGYSVVLHSHGANRWLLVGAPTANWLANASVINPGAIYRCRIGKNPGQTCEQLQLGSPNGEPCGKTCLEERDNQWLGVTLSRQPGENGSIVTCGHRWKNIFYIKNENKLPTGGCYGVPPDLRTELSKRIAPCYQDYVKKFGENFASCQAGISSFYTKDLIVMGAPGSSYWTGSLFVYNITTNKYKAFLDKQNQVKFGSYLGYSVGAGHFRSQHTTEVVGGAPQHEQIGKAYIFSIDEKELNILHEMKGKKLGSYFGASVCAVDLNADGFSDLLVGAPMQSTIREEGRVFVYINSGSGAVMNAMETNLVGSDKYAARFGESIVNLGDIDNDGFEDVAIGAPQEDDLQGAIYIYNGRADGISSTFSQRIEGLQISKSLSMFGQSISGQIDADNNGYVDVAVGAFRSDSAVLLRTRPVVIVDASLSHPESVNRTKFDCVENGWPSVCIDLTLCFSYKGKEVPGYIGGYALQY	binds

— patent US20140135483A1
